These results are taken from PMC7819943, “Rice protein-binding microarrays: a tool to detect cis-acting elements near promoter regions in rice”.

The other results are listed elsewhere or left out.

This test concerns the target T1, OsSMF1 (Oryza sativa, UniProt Q6ZLB0 1-436).
T1 sequence: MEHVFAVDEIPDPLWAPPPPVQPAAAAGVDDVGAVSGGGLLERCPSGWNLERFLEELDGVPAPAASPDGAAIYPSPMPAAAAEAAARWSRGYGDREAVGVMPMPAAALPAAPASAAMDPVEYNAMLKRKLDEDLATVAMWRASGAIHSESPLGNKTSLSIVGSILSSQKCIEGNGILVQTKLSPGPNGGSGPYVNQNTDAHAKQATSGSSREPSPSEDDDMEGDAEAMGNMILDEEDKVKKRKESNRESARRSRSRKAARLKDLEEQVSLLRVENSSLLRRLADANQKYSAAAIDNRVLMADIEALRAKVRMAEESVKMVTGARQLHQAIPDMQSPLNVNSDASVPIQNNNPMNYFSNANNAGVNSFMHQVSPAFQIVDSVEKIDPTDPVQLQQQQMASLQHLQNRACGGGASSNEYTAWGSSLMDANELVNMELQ
Put plainly: protein-binding microarray (RPBM); PBS, 2% BSA, 51.3 ng/ul salmon testes DNA, 50 uM zinc acetate, 200 nM TF, 25 C, 1 h; high values mean tight binding. The settings on record: protein: recombinant; tags: N-terminal polyhistidine and DsRed monomer fusion (pET32a); chain copies: 2; label: CyDye5-dUTP incorporated in the synthesized complementary strand; 3' TTTTT single-stranded linker to array surface; dsDNA, one strand shown. In a few lines: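 Using Ni–NTA, transcription factors fused N-terminally to polyhistidine and DsRed were purified after expression in E. coli BL21-CodonPlus. These were incubated at 200 nM with a blocked, double-stranded custom Agilent array for 1 h at 25 °C in a buffer containing 50 µM zinc acetate, and the array was washed. The binding signal is per-feature fluorescence intensity (arbitrary units) on an Axon 4000B scanner.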
Take “TAACAGAGCTTGTCCGACGAAGCATGATTCAAGTCGTAGCCGGAGTCACCTAGTGCAG”: the binding signal was 29900 fluorescence intensity (a.u.).

As for “TGGAAACTCGCGCGCGCGCGCGAGCGGCGGGCGGCTTTTCCGGAGTCACCTAGTGCAG”, the binding signal was 16900 fluorescence intensity (a.u.).

“AAAACCAAGATGAAATCACAGTGCTCTAATTATTTGTATCCGGAGTCACCTAGTGCAG”: the binding signal was 21600 fluorescence intensity (a.u.).

Turning to “ACTTGCTAGGGTCGCTGTCAGGCGTGACAAACTGAGCAGTCGGAGTCACCTAGTGCAG”, the binding signal was 3170 fluorescence intensity (a.u.).

In the case of “CGACTTCGACTACGACGAGCTCTTCGTCGACACCACCCCACGGAGTCACCTAGTGCAG”, the binding signal was 3880 fluorescence intensity (a.u.).

Turning to “AGCACACATACTAGTACTATATGACAAGTCCACGGAGAGCCGGAGTCACCTAGTGCAG”, the binding signal was 3760 fluorescence intensity (a.u.).

On to “CCATCCCATGGTGGGCCGGTTAGTTCTGTTCCTGGGCCATCGGAGTCACCTAGTGCAG”, for which the binding signal was 64400 fluorescence intensity (a.u.).

For the sequence “GGGGCGGCCGGGCACACGCAGAGCCACGTGGTGGTGGGGCCGGAGTCACCTAGTGCAG”, the binding signal is 7320 fluorescence intensity (a.u.).

As for “CATGGACTCTTGTGACTTTGTGGTGTGAGAGTGGGTTTTGCGGAGTCACCTAGTGCAG”, the binding signal is 3320 fluorescence intensity (a.u.).

“CCGTATCGATCGGCGTCACATCTCACATGTACTTCCCCAGCGGAGTCACCTAGTGCAG”: the binding signal was 6050 fluorescence intensity (a.u.).

With “TCGGAAGTACGTCAAGGAGGGAATCTGTGTCACTCTCCCGCGGAGTCACCTAGTGCAG”, the binding signal is 3730 fluorescence intensity (a.u.).

With “CTCTCCCCTAGGCCCTCTGACGTAGCCAACTTGCGGAAGCCGGAGTCACCTAGTGCAG”, the binding signal was 7020 fluorescence intensity (a.u.).

With “TGGGCTCTTAGTTGTCACCATGACTAGCTAGAGTTGTAGCCGGAGTCACCTAGTGCAG”, the binding signal is 3170 fluorescence intensity (a.u.).

On to “AAAGGTGATGCATTTGAAATGAATGCTCATCAGCATATGACGGAGTCACCTAGTGCAG”, for which the binding signal is 3150 fluorescence intensity (a.u.).

In the case of “TGCCCGGCCGCCGCCGAGAGGTCGATCAGCGGCCCGTACCCGGAGTCACCTAGTGCAG”, the binding signal is 7850 fluorescence intensity (a.u.).

For “AGGAGAAGTAGTATGATGACTACTTGTTTGGTTTAGTTCACGGAGTCACCTAGTGCAG”, the binding signal is 3180 fluorescence intensity (a.u.).

“CCGATGCCGACTTACGCGTAACGTGAAGGCCTAGGCTGTGCGGAGTCACCTAGTGCAG”: the binding signal is 3560 fluorescence intensity (a.u.).

As to “TTGGATGACACAACAACATGTAAGGTTAGAAACGATATGTCGGAGTCACCTAGTGCAG”, the binding signal was 3990 fluorescence intensity (a.u.).

For “GCGTTTCCGCCAAGCAAAGTCCACGCCACCCGCAACCACCCGGAGTCACCTAGTGCAG”, the binding signal was 4440 fluorescence intensity (a.u.).

Take “TCGGAGATACTCGTAAGGGGTATGATGTGTGTACATTTATCGGAGTCACCTAGTGCAG”: the binding signal is 3230 fluorescence intensity (a.u.).

As to “ATCATCCTTTATGTGTATCACGGAAACCTACGCTAGTGCTCGGAGTCACCTAGTGCAG”, the binding signal was 15500 fluorescence intensity (a.u.).

For “CTGCTCATCATTTGCGCTGCGACGCTGACGCGTGCGCCCACGGAGTCACCTAGTGCAG”, the binding signal was 6790 fluorescence intensity (a.u.).

“GGGTGTTGGTTGTGTGTGGTGGCTGCCAAATGGCTCGTGGCGGAGTCACCTAGTGCAG”: the binding signal was 3480 fluorescence intensity (a.u.).

In the case of “TGCGCCGATAGCTCCTGTCAACGTGTCACGCGCTGCGCCTCGGAGTCACCTAGTGCAG”, the binding signal was 8650 fluorescence intensity (a.u.).

In the case of “CGAGCAAGACGACGAGACCGGTCTCGCTATCGTCGCGTGACGGAGTCACCTAGTGCAG”, the binding signal is 3390 fluorescence intensity (a.u.).

Turning to “GCAATGCATTTCAAATTCAGGACCCCATAGAGAAATCAACCGGAGTCACCTAGTGCAG”, the binding signal is 29200 fluorescence intensity (a.u.).

As to “ACACACGTAACTCATGCACCCTCGTTTCTACGAGATGAACCGGAGTCACCTAGTGCAG”, the binding signal is 3220 fluorescence intensity (a.u.).

With “CTCTCTCGCTCTAAATTACTGTATCGCCGTCATGTACGCCCGGAGTCACCTAGTGCAG”, the binding signal is 3910 fluorescence intensity (a.u.).

With “TTTTGCATGTCATATTGAATATTATATGGGGTGTCACATGCGGAGTCACCTAGTGCAG”, the binding signal was 4810 fluorescence intensity (a.u.).

Regarding “ACGGCGTCCGCGTGGCCGACAAGATCCTGCGGCTTGTCCCCGGAGTCACCTAGTGCAG”, the binding signal was 3960 fluorescence intensity (a.u.).

On to “ACCCTAACGCTTGAAGTCATGCACCATCTAATATGATATCCGGAGTCACCTAGTGCAG”, for which the binding signal was 3970 fluorescence intensity (a.u.).

“TTCCATTGCTACTTTTCCACGTGCAGTTGCCAGGTTGTGACGGAGTCACCTAGTGCAG”: the binding signal is 5140 fluorescence intensity (a.u.).

“CATGTGTCTAATGTCTTTCTTCTATCTTACGACGTGGGGCCGGAGTCACCTAGTGCAG”: the binding signal is 3170 fluorescence intensity (a.u.).

Turning to “TGTGAGATCGGGATCTGTCCGCAGCCCAACATGACTGTACCGGAGTCACCTAGTGCAG”, the binding signal is 5090 fluorescence intensity (a.u.).

Regarding “CAAGTTTTCTTCAATAGGCAATGTGGTCACGTGAATTCTCCGGAGTCACCTAGTGCAG”, the binding signal was 3710 fluorescence intensity (a.u.).

Regarding “GATAGCGGTTTTGGCTGACGTGGCGCCTACATGGCTATTTCGGAGTCACCTAGTGCAG”, the binding signal was 16800 fluorescence intensity (a.u.).

In the case of “TGCCTGTCGGGATGGGATGCATATGGATGGAGTATGAACACGGAGTCACCTAGTGCAG”, the binding signal is 3170 fluorescence intensity (a.u.).

Regarding “CGAATTTAAAATTGAAAATACAAAATTTGACTCATAAGCTCGGAGTCACCTAGTGCAG”, the binding signal was 3780 fluorescence intensity (a.u.).

On to “AGGAAGAAGCAGCCTCGGTCTCTCCGATCTGCGTGGACGCCGGAGTCACCTAGTGCAG”, for which the binding signal is 3720 fluorescence intensity (a.u.).

With “GCTACATATGAGCACCATGACATGTCCTTAGAGGTGGAGACGGAGTCACCTAGTGCAG”, the binding signal was 3140 fluorescence intensity (a.u.).

As to “GTGGCACCGTGGCATGGGTCACTGCCCGAGTCATTCCTCACGGAGTCACCTAGTGCAG”, the binding signal is 3870 fluorescence intensity (a.u.).

Consider “CCCTCCCCTCTTCTCCGCGCGCGACAATACCACGCCTACGCGGAGTCACCTAGTGCAG”, for which the binding signal was 3560 fluorescence intensity (a.u.).

“TAAGTGGCGGTCGGTCACGCTTAGCGGCGGCCGGTCCGGTCGGAGTCACCTAGTGCAG”: the binding signal is 4300 fluorescence intensity (a.u.).

For the sequence “GGCGGCTCTGGTTCGGCGACACGTGGCGCCGGGCTGCGGCCGGAGTCACCTAGTGCAG”, the binding signal was 7500 fluorescence intensity (a.u.).

Consider “TCCATATAGTTCTAGATAATCCGTGGCAATAGGCCGGAGTCGGAGTCACCTAGTGCAG”, for which the binding signal is 3330 fluorescence intensity (a.u.).

Regarding “CATTTCTTCTCTAGCGTTACGCTGTCCCTTCTCTCGGTGACGGAGTCACCTAGTGCAG”, the binding signal is 35400 fluorescence intensity (a.u.).

Turning to “CGGGAGCTCTCCCGGCGGTACGGCCCCGTCATGCTCCTCCCGGAGTCACCTAGTGCAG”, the binding signal is 4810 fluorescence intensity (a.u.).

Turning to “GCCGTAGAGGCGATGTGTCCGGCCTGTACTTTGATCGTCTCGGAGTCACCTAGTGCAG”, the binding signal was 3650 fluorescence intensity (a.u.).

As to “CGCCGGGCCGGGGCAATGCTGAACTAACGCGCTTCTCATTCGGAGTCACCTAGTGCAG”, the binding signal is 3470 fluorescence intensity (a.u.).

Take “TATATGGTCTTCTCAATTAAACTCCACTAAACCTCCCTATCGGAGTCACCTAGTGCAG”: the binding signal was 3680 fluorescence intensity (a.u.).

Regarding “TTGGCATTATTAACTAGCTGCAGCGTCACATATTTCACTACGGAGTCACCTAGTGCAG”, the binding signal is 5610 fluorescence intensity (a.u.).

Turning to “GAACCATCCAACGGTGCAGCACCAGTGGGCCCCACACACCCGGAGTCACCTAGTGCAG”, the binding signal is 18700 fluorescence intensity (a.u.).

In the case of “ACCTGGCAATGTCTTTACTGTCTCTAATGCCATGTCAGAGCGGAGTCACCTAGTGCAG”, the binding signal was 7000 fluorescence intensity (a.u.).

Turning to “ATGGTAGGGATGACTCTGACGATTCTCCTGGCCTCCCGCCCGGAGTCACCTAGTGCAG”, the binding signal is 4110 fluorescence intensity (a.u.).
